PubChem BioAssay AID1224830 – NIAID – 2016
Here is a random part of about 18,000 reagents. About 2,900 of all reagents (16%) count as active. 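Calls are made per well; low scores hint the gene aids the LPS response, high scores that it dampens it.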 Repeated entries: four replicate wells of each siRNA pool. Reagent sequences are not shown.

Assay: 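Genes whose knock-down alters the TNF-alpha reporter response to LPS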 (primary screen)
System: human THP-1 monocytic leukaemia cells, TNF dual-luciferase reporter clone, PMA-differentiated to macrophage-like cells
Reagents: siRNA pool against human genes, 50 nM
Timing: LPS for 4 h, given about 3 days after siRNA transfection
Challenge: bacterial LPS (TLR4 ligand), 10 ng/ml
Read-out: 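Ratio of firefly to renilla light, scaled to the plate median and expressed as a robust z-score per replicate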
Direction: TNF reporter robust z-score: higher = stronger TNF reporter response to LPS
Hit rule: 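a well is active when its z-score exceeds 2.8 or falls below -1.5; control wells carry no call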

Depletion of KLHL11 [SID315457467] gave: TNF reporter robust z-score -0.92; inactive.
For KLHL11 [SID315457467] the deposit lists TNF reporter robust z-score -1.17; inactive.
KLHL11 [SID315457467] gave TNF reporter robust z-score -0.81; inactive.
Against RNF43 [SID315457246], the entry reads TNF reporter robust z-score -0.01; inactive.
For RNF43 [SID315457246], the values are TNF reporter robust z-score 0.15; inactive.
After knock-down of RNF43 [SID315457246], the screen gave TNF reporter robust z-score 0.29; inactive.
RNF43 [SID315457246] gave TNF reporter robust z-score -1.04; inactive.
Against CCR5 [SID315447984] the deposit lists TNF reporter robust z-score -0.24; inactive.
Against CCR5 [SID315447984] the deposit lists TNF reporter robust z-score 0.13; inactive.
For CCR5 [SID315447984], the entry reads TNF reporter robust z-score 0.06; inactive.
Against CCR5 [SID315447984], the entry reads TNF reporter robust z-score 0.41; inactive.
Depletion of SEMA4A [SID315458869] came out at: TNF reporter robust z-score 0.49; inactive.
Silencing of SEMA4A [SID315458869] gave: TNF reporter robust z-score 0.69; inactive.
Knock-down of SEMA4A [SID315458869] resulted in: TNF reporter robust z-score 1.42; inactive.
SEMA4A [SID315458869] scored TNF reporter robust z-score 0.28; inactive.
Against PPL [SID315450733] the deposit lists TNF reporter robust z-score -1.86; active.
Knock-down of PPL [SID315450733] resulted in: TNF reporter robust z-score -1.64; active.
With knock-down of PPL [SID315450733] the results were TNF reporter robust z-score -1.35; inactive.
Against PPL [SID315450733], the entry reads TNF reporter robust z-score -1.58; active.
Depletion of RAB21 [SID315454924] came out at: TNF reporter robust z-score 0.85; inactive.
Depletion of RAB21 [SID315454924] resulted in: TNF reporter robust z-score 1.01; inactive.
RAB21 [SID315454924] gave TNF reporter robust z-score 1.17; inactive.
With knock-down of RAB21 [SID315454924], the screen gave TNF reporter robust z-score 1.18; inactive.
For CCDC134 [SID315459534], the entry reads TNF reporter robust z-score -1.23; inactive.
CCDC134 [SID315459534] gave TNF reporter robust z-score -0.45; inactive.
Depletion of CCDC134 [SID315459534] came out at: TNF reporter robust z-score -0.68; inactive.
For CCDC134 [SID315459534] the deposit lists TNF reporter robust z-score 0.9; inactive.
Depletion of TP53AIP1 [SID315458789] gave: TNF reporter robust z-score 1.25; inactive.
With knock-down of TP53AIP1 [SID315458789], the record shows TNF reporter robust z-score 1.29; inactive.
TP53AIP1 [SID315458789] gave TNF reporter robust z-score 1.27; inactive.
Knock-down of TP53AIP1 [SID315458789] gave: TNF reporter robust z-score -0.86; inactive.
With knock-down of PLB1 [SID315462476], the screen gave TNF reporter robust z-score 4.69; active.
Depletion of PLB1 [SID315462476] came out at: TNF reporter robust z-score 0.44; inactive.
For PLB1 [SID315462476], the entry reads TNF reporter robust z-score 1.09; inactive.
With knock-down of PLB1 [SID315462476] the results were TNF reporter robust z-score -0.13; inactive.
With knock-down of KCNH4 [SID315455227], the screen gave TNF reporter robust z-score 1.14; inactive.
KCNH4 [SID315455227] gave TNF reporter robust z-score 0.58; inactive.
KCNH4 [SID315455227] scored TNF reporter robust z-score -0.01; inactive.
Against KCNH4 [SID315455227], the entry reads TNF reporter robust z-score 0.86; inactive.
With knock-down of DYM [SID315457173], the record shows TNF reporter robust z-score 0.93; inactive.
DYM [SID315457173] showed TNF reporter robust z-score -0.18; inactive.
After knock-down of DYM [SID315457173], the record shows TNF reporter robust z-score 0.5; inactive.
With knock-down of DYM [SID315457173] the results were TNF reporter robust z-score -0.55; inactive.
With knock-down of POGLUT2 [SID315459190], the record shows TNF reporter robust z-score 1.08; inactive.
POGLUT2 [SID315459190] scored TNF reporter robust z-score 0.01; inactive.
POGLUT2 [SID315459190] showed TNF reporter robust z-score -0.74; inactive.
After knock-down of POGLUT2 [SID315459190], the screen gave TNF reporter robust z-score 1.16; inactive.

2 entries already listed, ordered by “TNF reporter robust z-score”, high to low.
PPL [SID315450733] | TNF reporter robust z-score = -1.35; Call = inactive
PPL [SID315450733] | TNF reporter robust z-score = -1.58; Call = active
